Source: patent US20100009956A1, “NOVEL SUBSTITUTED PYRIMIDINES AS CYSTEINE PROTEASE INHIBITORS” (Glaxo Group Limited , a corporation, priority 2006, published 2010)
Counter-ions that a name gives are not always drawn. Some of these results come from one statement about several compounds together.

Chains of the proteins cited; added tags and fusions are not shown. Residues count along the entry.
UniProt P25774, 115-331: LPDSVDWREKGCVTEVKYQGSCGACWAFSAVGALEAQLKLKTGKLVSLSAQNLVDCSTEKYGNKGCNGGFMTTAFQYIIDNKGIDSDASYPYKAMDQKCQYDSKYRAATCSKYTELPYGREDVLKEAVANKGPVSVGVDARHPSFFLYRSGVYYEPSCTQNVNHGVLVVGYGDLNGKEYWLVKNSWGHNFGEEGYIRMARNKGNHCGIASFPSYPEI

What follows are molecules tested against Cathepsin S (Homo sapiens, UniProt P25774) (assay: Cathepsin S enzymatic assay (assay 1)). Conditions: human recombinant enzyme, KQKLR-AMC substrate, pH 6.5.
Format: biochemical
Description: Assay 1) Determination of Falcipain-2, Falcipain-3, Vivapain-2, Cathepsin K Cathepsin S, Cathepsin L, and Cathepsin B Proteolytic Catalytic Activity
Assays for Falcipain-2, Falcipain-3, and Vivapain-2 are carried out with parasitic recombinant enzymes. Cathepsins K, S, L, and B are carried out with human recombinant enzymes. Standard assay conditions for the determination of kinetic constants used a fluorogenic peptide substrate, typically H-D-VLR-AFC (Falcipain-2, Falcipain-3, Vivapain-2), Z-FR-AFC (Cathepsin K, L, B), or KQKLR-AMC (Cathepsin S) and are determined in 100 mM sodium acetate, pH 5.5, containing 10 mM DTT and 0.5 mM CHAPS (Falcipain-2, Falcipain-3, Vivapain-2), and 100 mM sodium acetate, pH 5.5, containing 5 mM L-cysteine, 1 mM CHAPS and 5 mM EDTA (Cathepsin K, L, B), or 50 mM MES, pH 6.5, containing 0.5 mM CHAPS, 10 mM L-CYS, 5 mM EDTA (Cathepsin S). Stock substrate solutions are prepared at 20 mM in DMSO. The activity assays contained 30 uM substrate (Falcipain-2, Falcipain-3, Vivapain-2), 20 uM substrate (Cathepsin K), 25 uM substrate (Cathepsin B), 5 uM substrate (Cathepsin L), and 30 uM substrate (Cathepsin S). All assays contained 1% DMSO. […] All assays are conducted at ambient temperature as end point assays being quenched after 60 minutes with the exception of Cathepsin S at 90 minutes, with 16.6 uM E-64 in 1% DMSO. Product formation (AFC or AMC) is determined from fluorescence (excitation at 405 nm; emission at 530 nm, AFC, or excitation at 360 nm; emission at 460 nm, AMC) monitored with a LJL Aquest (Molecular Devices) fluorescent plate reader. In the case of kinetic reads (used in mechanism of action studies), the reaction is not quenched but is read in the plate reader every 3 minutes for approximately 90 minutes. In addition, the mechanism of action studies for Falcipain-2 utilize Z-LR-AMC as the substrate. Product formation is determined from the fluorescence of AMC, measured with a LJL Acquest (Molecular Devices) fluorescent plate reader (excitation at 360 nm; emission at 460 nm).
Potential inhibitors are evaluated using the quenched read (endpoint) method. Assays are carried out in the presence of variable concentrations of test compound. Reactions are initiated by addition of enzyme and substrate to wells containing inhibitor stamped in 100% DMSO. For endpoint assays, the reaction is quenched with the addition of E64. Dose response data is fit to an IC50 curve with preset fitting tools according to equation 1:
y=a+(b−a)/(1+(10^x/10^c)^d) (1)
where y is the response at a particular inhibitor concentration x, a is the minimum response value, b is the maximum response value, c is the IC50, and d is the slope of the IC50 curve. Assuming the compound is a competitive inhibitor, the apparent KI can be calculated from IC50, as shown in equation 2: […]

Question: `CN(Cc1ccc(C(=O)NN(c2nc(C#N)ncc2Cl)C2CCCC2)cc1)C1CCC2(CC1)OCC(C)(C)CO2` [Example 65, N′-(5-chloro-2-cyano-4-pyrimidinyl)-N′-cyclopentyl-4-{[(3,3-dimethyl-1,5-dioxaspiro[5.5]undec-9-yl)(methyl)amino]methyl}benzohydrazide trifluoroacetate] was tested. Which IC50 did it give?
Answer: < 1 µM

Question: How did the IC50 turn out when `CC(=O)N1CCC(N(NC(=O)OC(C)(C)C)c2nc(C#N)ncc2Br)CC1` [Example 79, 1,1-dimethylethyl 2-(1-acetyl-4-piperidinyl)-2-(5-bromo-2-cyano-4-pyrimidinyl)hydrazinecarboxylate] was run?
Answer: < 1 µM

Question: Which IC50 does the source give for `CN1CCN(Cc2ccc(-c3cncc(C(=O)NN(c4nc(C#N)ncc4Br)C4CCCC4)c3)cc2)CC1` [Example 45, N′-(5-bromo-2-cyano-4-pyrimidinyl)-N′-cyclopentyl-5-{4-[(4-methyl-1-piperazinyl)methyl]phenyl}-3-pyridinecarbohydrazide trifluoroacetate] here?
Answer: < 1 µM

Question: `CCN(CC)Cc1ccc(C(=O)NN(c2nc(C#N)ncc2Cl)C2CCCC2)cc1` [Example 66, N′-(5-chloro-2-cyano-4-pyrimidinyl)-N′-cyclopentyl-4-[(diethylamino)methyl]benzohydrazide trifluoroacetate] was tested. Which IC50 did it give?
Answer: < 1 µM

Question: Which IC50 does the source give for `CN1CCCC(CN2CCN(Cc3ccc(C(=O)NN(c4nc(C#N)ncc4Br)C4CCCCC4)cc3)CC2)C1` (stereo not shown) [Example 25, N′-(5-bromo-2-cyano-4-pyrimidinyl)-N′-cyclohexyl-4-({4-[(-methyl-3-piperidinyl)methyl]-1-piperazinyl}methyl)benzohydrazide trifluoroacetate] here?
Answer: < 1 µM

Question: How did the IC50 turn out when `CN(CC(=O)N(C)C)Cc1ccc(C(=O)NN(c2nc(C#N)ncc2Cl)C2CCCC2)cc1` [Example 60, N^2-[(4-{[2-(5-chloro-2-cyano-4-pyrimidinyl)-2-cyclopentylhydrazino]carbonyl}phenyl)methyl]-N^1,N^1,N^2-trimethylglycinamide trifluoroacetate] was run?
Answer: < 1 µM

Question: Which IC50 does the source give for `CN1CCN(Cc2ccc(-c3ccc(C(=O)NN(c4nc(C#N)ncc4Br)C4CCCCC4)cn3)cc2)CC1` [Example 44, N′-(5-bromo-2-cyano-4-pyrimidinyl)-N′-cyclohexyl-6-{4-[(4-methyl-1-piperazinyl)methyl]phenyl}-3-pyridinecarbohydrazide trifluoroacetate] here?
Answer: < 1 µM

Question: With `CCCN1CCN(c2ccc(C(=O)NN(c3nc(C#N)ncc3Br)C3CCCCC3)cc2)CC1` [Example 80, N′-(5-bromo-2-cyano-4-pyrimidinyl)-N′-cyclohexyl-4-(4-propyl-1-piperazinyl)benzohydrazide trifluoroacetate] as the molecule, how does the IC50 read?
Answer: < 1 µM

Question: With `CN1CCN(C(=O)C2CCN(Cc3ccc(C(=O)NN(c4nc(C#N)ncc4Br)C4CCCCC4)cc3)CC2)CC1` [Example 22, N′-(5-bromo-2-cyano-4-pyrimidinyl)-N′-cyclohexyl-4-({4-[(4-methyl-1-piperazinyl)carbonyl]-1-piperidinyl}methyl)benzohydrazide trifluoroacetate] as the molecule, how does the IC50 read?
Answer: < 1 µM

Question: `CN1CCN(c2ccc(C(=O)NN(c3nc(C#N)ncc3Cl)C3CCCC3)cc2)CC1` [Example 52, N′-(5-chloro-2-cyano-4-pyrimidinyl)-N′-cyclopentyl-4-(4-methyl-1-piperazinyl)benzohydrazide trifluoroacetate] was tested. Which IC50 did it give?
Answer: < 1 µM

Question: For `CCCCN(C)Cc1ccc(C(=O)NN(c2nc(C#N)ncc2Cl)C2CCCC2)cc1` [Example 57, 4-{[butyl(methyl)amino]methyl}-N′-(5-chloro-2-cyano-4-pyrimidinyl)-N′-cyclopentylbenzohydrazide trifluoroacetate], which IC50 is on record?
Answer: < 1 µM

Question: `CN(CCc1ccccc1)Cc1ccc(C(=O)NN(c2nc(C#N)ncc2Cl)C2CCCC2)cc1` [Example 62, N′-(5-chloro-2-cyano-4-pyrimidinyl)-N′-cyclopentyl-4-{[methyl(2-phenylethyl)amino]methyl}benzohydrazide trifluoroacetate] was tested. Which IC50 did it give?
Answer: < 1 µM

Question: For `CN1CCN(Cc2cccc(-c3cncc(C(=O)NN(c4nc(C#N)ncc4Br)C4CCCCC4)c3)c2)CC1` [Example 47, N′-(5-bromo-2-cyano-4-pyrimidinyl)-N′-cyclohexyl-5-{3-[(4-methyl-1-piperazinyl)methyl]phenyl}-3-pyridinecarbohydrazide trifluoroacetate], which IC50 is on record?
Answer: < 1 µM

Question: Which IC50 does the source give for `CN(CCC(O)c1ccccc1)Cc1ccc(C(=O)NN(c2nc(C#N)ncc2Cl)C2CCCC2)cc1` (stereo not shown) [Example 59, N′-(5-chloro-2-cyano-4-pyrimidinyl)-N′-cyclopentyl-4-{[(3-hydroxy-3-phenylpropyl)(methyl)amino]methyl}benzohydrazide trifluoroacetate] here?
Answer: < 1 µM

Question: With `CC(C)N(Cc1ccc(C(=O)NN(c2nc(C#N)ncc2Cl)C2CCCC2)cc1)C(C)C` [Example 72, 4-{[bis(1-methylethyl)amino]methyl}-N′-(5-chloro-2-cyano-4-pyrimidinyl)-N′-cyclopentylbenzohydrazide trifluoroacetate] as the molecule, how does the IC50 read?
Answer: < 1 µM

Question: For `CN1CCN(Cc2ccc(-c3ccc(C(=O)NN(c4nc(C#N)ncc4Br)C4CCCC4)cn3)cc2)CC1` [Example 46, N′-(5-bromo-2-cyano-4-pyrimidinyl)-N′-cyclopentyl-6-{4-[(4-methyl-1-piperazinyl)methyl]phenyl}-3-pyridinecarbohydrazide trifluoroacetate], which IC50 is on record?
Answer: < 1 µM

Question: How did the IC50 turn out when `CN1CCN(Cc2ccc(C(=O)NN(c3nc(C#N)ncc3Cl)C3CCCC3)cc2)CC1` [Example 50, N′-(5-chloro-2-cyano-4-pyrimidinyl)-N′-cyclopentyl-4-[(4-methyl-1-piperazinyl)methyl]benzohydrazide trifluoroacetate] was run?
Answer: < 1 µM

Question: How did the IC50 turn out when `N#Cc1ncc(Cl)c(N(NC(=O)c2ccc(CN3CCC(O)CC3)cc2)C2CCCC2)n1` [Example 70, N′-(5-chloro-2-cyano-4-pyrimidinyl)-N′-cyclopentyl-4-[(4-hydroxy-1-piperidinyl)methyl]benzohydrazide trifluoroacetate] was run?
Answer: < 1 µM

Question: `CN(Cc1ccc(C(=O)NN(c2nc(C#N)ncc2Cl)C2CCCC2)cc1)C1CCCCC1` [Example 53, N′-(5-chloro-2-cyano-4-pyrimidinyl)-4-{[cyclohexyl(methyl)amino]methyl}-N′-cyclopentylbenzohydrazide trifluoroacetate] was tested. Which IC50 did it give?
Answer: < 1 µM

Question: How did the IC50 turn out when `CN(C)Cc1ccc(C(=O)NN(c2nc(C#N)ncc2Cl)C2CCCC2)cc1` [Example 54, N′-(5-chloro-2-cyano-4-pyrimidinyl)-N′-cyclopentyl-4-[(dimethylamino)methyl]benzohydrazide trifluoroacetate] was run?
Answer: < 1 µM

Question: Which IC50 does the source give for `CN(CCCc1ccccc1)Cc1ccc(C(=O)NN(c2nc(C#N)ncc2Cl)C2CCCC2)cc1` [Example 64, N′-(5-chloro-2-cyano-4-pyrimidinyl)-N′-cyclopentyl-4-{[methyl(3-phenylpropyl)amino]methyl}benzohydrazide trifluoroacetate] here?
Answer: < 1 µM

Question: Which IC50 does the source give for `CN1CCN(Cc2ccc(C(=O)NN(c3nc(C#N)ncc3Cl)C3CCCCC3)cc2)CC1` [Example 51, N′-(5-chloro-2-cyano-4-pyrimidinyl)-N′-cyclohexyl-4-[(4-methyl-1-piperazinyl)methyl]benzohydrazide trifluoroacetate] here?
Answer: < 1 µM

Question: How did the IC50 turn out when `CCN(Cc1ccc(C(=O)NN(c2nc(C#N)ncc2Cl)C2CCCC2)cc1)C1CCCCC1` [Example 69, N′-(5-chloro-2-cyano-4-pyrimidinyl)-4{[cyclohexyl(ethyl)amino]methyl}-N′-cyclopentylbenzohydrazide trifluoroacetate] was run?
Answer: < 1 µM

Question: With `CCN(Cc1ccc(C(=O)NN(c2nc(C#N)ncc2Cl)C2CCCC2)cc1)C(C)C` [Example 68, N′-(5-chloro-2-cyano-4-pyrimidinyl)-N′-cyclopentyl-4-{[ethyl(1-methylethyl)amino]methyl}benzohydrazide trifluoroacetate] as the molecule, how does the IC50 read?
Answer: < 1 µM

Question: Which IC50 does the source give for `CCCCCCN(C)Cc1ccc(C(=O)NN(c2nc(C#N)ncc2Cl)C2CCCC2)cc1` [Example 56, N′-(5-chloro-2-cyano-4-pyrimidinyl)-N′-cyclopentyl-4-{([hexyl(methyl)amino]methyl}benzohydrazide trifluoroacetate] here?
Answer: < 1 µM
